In US6936636B2, “5-[phenyl-tetrahydronaphthalene-2-yl dihydronaphthalen-2-yl and heteroaryl-cyclopropyl]-pentadienoic acid derivatives having serum glucose reducing activity” (Allergan, Inc., priority 2003, dated 2005):
pEC50, pKi: −log10 of the molar value. The structures given here were assigned with low confidence; some may be wrong.

By UniProt entry, the sequences of proteins in these tests, tags left out.
UniProt P28702, whole entry: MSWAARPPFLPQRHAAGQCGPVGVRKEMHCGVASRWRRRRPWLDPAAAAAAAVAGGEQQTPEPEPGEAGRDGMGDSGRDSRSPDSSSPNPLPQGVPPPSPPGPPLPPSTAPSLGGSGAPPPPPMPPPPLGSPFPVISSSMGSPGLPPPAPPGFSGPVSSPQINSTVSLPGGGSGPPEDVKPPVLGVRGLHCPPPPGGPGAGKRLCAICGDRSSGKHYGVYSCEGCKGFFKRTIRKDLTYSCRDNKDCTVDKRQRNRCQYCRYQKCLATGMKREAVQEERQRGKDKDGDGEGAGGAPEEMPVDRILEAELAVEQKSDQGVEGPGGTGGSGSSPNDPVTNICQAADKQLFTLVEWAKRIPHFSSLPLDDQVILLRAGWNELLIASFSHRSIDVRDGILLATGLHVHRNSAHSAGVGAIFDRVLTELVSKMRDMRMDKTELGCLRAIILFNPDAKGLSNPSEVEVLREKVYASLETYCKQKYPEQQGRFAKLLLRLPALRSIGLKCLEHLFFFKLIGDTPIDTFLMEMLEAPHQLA
UniProt P19793, whole entry: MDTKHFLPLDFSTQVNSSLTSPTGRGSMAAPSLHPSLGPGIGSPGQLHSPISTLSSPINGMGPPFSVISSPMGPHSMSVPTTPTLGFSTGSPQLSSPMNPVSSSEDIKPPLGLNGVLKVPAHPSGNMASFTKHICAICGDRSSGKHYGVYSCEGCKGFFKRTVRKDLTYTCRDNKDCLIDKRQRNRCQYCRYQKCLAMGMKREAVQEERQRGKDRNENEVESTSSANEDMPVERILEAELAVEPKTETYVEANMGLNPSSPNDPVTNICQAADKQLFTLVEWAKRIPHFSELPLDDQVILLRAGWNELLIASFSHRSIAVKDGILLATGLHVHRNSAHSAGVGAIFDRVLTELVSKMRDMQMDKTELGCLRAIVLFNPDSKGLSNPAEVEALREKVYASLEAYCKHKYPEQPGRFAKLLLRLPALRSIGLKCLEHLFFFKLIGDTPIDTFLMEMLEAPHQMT
UniProt P48443, whole entry: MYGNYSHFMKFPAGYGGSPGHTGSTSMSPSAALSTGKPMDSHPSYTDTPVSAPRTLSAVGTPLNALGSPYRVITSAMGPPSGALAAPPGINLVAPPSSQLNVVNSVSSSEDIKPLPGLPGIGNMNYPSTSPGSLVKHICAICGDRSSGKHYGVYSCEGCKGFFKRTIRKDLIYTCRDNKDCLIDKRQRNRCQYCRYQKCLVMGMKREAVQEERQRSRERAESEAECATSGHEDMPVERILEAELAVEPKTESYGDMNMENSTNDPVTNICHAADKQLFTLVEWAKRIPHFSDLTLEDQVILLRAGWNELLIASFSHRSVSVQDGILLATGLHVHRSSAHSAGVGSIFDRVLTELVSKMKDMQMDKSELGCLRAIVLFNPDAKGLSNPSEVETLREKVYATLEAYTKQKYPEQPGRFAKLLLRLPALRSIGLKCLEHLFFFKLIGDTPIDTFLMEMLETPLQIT

Key:
[1] = target: T1, RXRβ (Homo sapiens, UniProt P28702); assay: RXR ligand binding assay; conditions: read-out: Binding Ki RXRβ
Description: (§1) A holoreceptor transactivation assay and a ligand binding assay which measure the antagonist/agonist like activity of the compounds of the invention, or their ability to bind to the several retinoid receptor subtypes, respectively, are described in published PCT Application No. WO WO93/11755 (particularly on pages 30-33 and 37-41) published on Jun. 24, 1993, the specification of which is also incorporated herein by reference. A detailed experimental procedure for holoreceptor transactivations has been described by Heyman et al. Cell 68, 397-406, (1992); Allegretto et al. J. Biol. Chem. 268, 26625-26633, and Mangelsdorf et al. The Retinoids: Biology, Chemistry and Medicine, pp 319-349, Raven Press Ltd., New York, which are expressly incorporated herein by reference. The results obtained in this assay are expressed in EC50 numbers, as they are also in the, chimeric receptor transactivation assay. The results of the ligand binding assay are expressed in Ki numbers. […]
(§2) In Tables 1 and 2 the binding Ki numbers are indicated in the first 3 columns. In the second set of three columns the numbers in parentheses indicate efficacy as a percentage compared to the standard compound, (2E, 4E, 1′S, 2′S)-3-methyl-5-[2′-methyl-2′-(5,5,8,8-tetramethyl-5,6,7,8-tetrahydro-naphthalen-2-yl)-cyclopropyl]-penta-2,4-dienoic acid and the other numbers indicate the measured EC50 in nanomolar concentration.

[2] = target: T2, RXRα (Homo sapiens, UniProt P19793); assay: RXR ligand binding assay; conditions: read-out: Binding Ki RXRα
Description: as §1, §2

[3] = target: RXRγ (Homo sapiens, UniProt P48443); assay: holoreceptor transactivation assay; conditions: read-out: Transactivation EC50 RXRγ
Description: (§3) A holoreceptor transactivation assay and a ligand binding assay which measure the antagonist/agonist like activity of the compounds of the invention, or their ability to bind to the several retinoid receptor subtypes, respectively, are described in published PCT Application No. WO WO93/11755 (particularly on pages 30-33 and 37-41) published on Jun. 24, 1993, the specification of which is also incorporated herein by reference. A detailed experimental procedure for holoreceptor transactivations has been described by Heyman et al. Cell 68, 397-406, (1992); Allegretto et al. J. Biol. Chem. 268, 26625-26633, and Mangelsdorf et al. The Retinoids: Biology, Chemistry and Medicine, pp 319-349, Raven Press Ltd., New York, which are expressly incorporated herein by reference. The results obtained in this assay are expressed in EC50 numbers, as they are also in the, chimeric receptor transactivation assay. The results of the ligand binding assay are expressed in Ki numbers. (See Cheng et al. Biochemical Pharmacology Vol. 22 pp 3099-3108, expressly incorporated herein by reference.)
(§4) Efficacy in a transactivation assay is expressed as a percentage of the maximum potency attained by the compound compared to a standard which, in this, case, is the compound named (2E, 4E, 1′S, 2′S)-3-methyl-5-[2′-methyl-2′-(5,5,8,8-tetramethyl-5,6,7,8-tetrahydro-naphthalen-2-yl)-cyclopropyl]-penta-2,4-dienoic acid. This standard compound is described in U.S. Pat. No. 6,114,533.
(§5) Table 1 discloses the activity of certain exemplary tetrahydronaphthale compounds of the invention in the above-described RXR receptor transactivation and binding assays. […]
as §2

[4] = target: T1, RXRβ; assay: holoreceptor transactivation assay; conditions: read-out: Transactivation EC50 RXRβ
Description: as §3, §4, §5, §2

[5] = target: T2, RXRα; assay: holoreceptor transactivation assay; conditions: read-out: Transactivation EC50 RXRα
Description: as §3, §4, §5, §2

pKi [1]: 7.02
pKi [2]: 7.62
pEC50 [3]: 5.35
pEC50 [4]: < 5.52
pEC50 [5]: 7.32
SMILES: CCOC[C@H]1[C@@H](/C=C/C(C)=C/C(=O)O)[C@@]1(C)c1cc(C(C)C)cc(C(C)C)c1
